Results from article PMC11369598.
Substitutions are numbered along the chain they refer to. Like-named read-outs stand apart in the source and are kept apart here. No constants are given. Whether binding was seen depends on the method and setting. Binding seen in cells or lysates may run through a third protein. Here binding means that the protein was enriched with, or labelled near, the bait; the list need not be complete. For some assays here: No binding means not detected with the bait. Tags and fused reporters may be left off the sequences shown.

Sequences of proteins named here, by UniProt entry; tags and fusion partners are left off.
UniProt Q5T4S7: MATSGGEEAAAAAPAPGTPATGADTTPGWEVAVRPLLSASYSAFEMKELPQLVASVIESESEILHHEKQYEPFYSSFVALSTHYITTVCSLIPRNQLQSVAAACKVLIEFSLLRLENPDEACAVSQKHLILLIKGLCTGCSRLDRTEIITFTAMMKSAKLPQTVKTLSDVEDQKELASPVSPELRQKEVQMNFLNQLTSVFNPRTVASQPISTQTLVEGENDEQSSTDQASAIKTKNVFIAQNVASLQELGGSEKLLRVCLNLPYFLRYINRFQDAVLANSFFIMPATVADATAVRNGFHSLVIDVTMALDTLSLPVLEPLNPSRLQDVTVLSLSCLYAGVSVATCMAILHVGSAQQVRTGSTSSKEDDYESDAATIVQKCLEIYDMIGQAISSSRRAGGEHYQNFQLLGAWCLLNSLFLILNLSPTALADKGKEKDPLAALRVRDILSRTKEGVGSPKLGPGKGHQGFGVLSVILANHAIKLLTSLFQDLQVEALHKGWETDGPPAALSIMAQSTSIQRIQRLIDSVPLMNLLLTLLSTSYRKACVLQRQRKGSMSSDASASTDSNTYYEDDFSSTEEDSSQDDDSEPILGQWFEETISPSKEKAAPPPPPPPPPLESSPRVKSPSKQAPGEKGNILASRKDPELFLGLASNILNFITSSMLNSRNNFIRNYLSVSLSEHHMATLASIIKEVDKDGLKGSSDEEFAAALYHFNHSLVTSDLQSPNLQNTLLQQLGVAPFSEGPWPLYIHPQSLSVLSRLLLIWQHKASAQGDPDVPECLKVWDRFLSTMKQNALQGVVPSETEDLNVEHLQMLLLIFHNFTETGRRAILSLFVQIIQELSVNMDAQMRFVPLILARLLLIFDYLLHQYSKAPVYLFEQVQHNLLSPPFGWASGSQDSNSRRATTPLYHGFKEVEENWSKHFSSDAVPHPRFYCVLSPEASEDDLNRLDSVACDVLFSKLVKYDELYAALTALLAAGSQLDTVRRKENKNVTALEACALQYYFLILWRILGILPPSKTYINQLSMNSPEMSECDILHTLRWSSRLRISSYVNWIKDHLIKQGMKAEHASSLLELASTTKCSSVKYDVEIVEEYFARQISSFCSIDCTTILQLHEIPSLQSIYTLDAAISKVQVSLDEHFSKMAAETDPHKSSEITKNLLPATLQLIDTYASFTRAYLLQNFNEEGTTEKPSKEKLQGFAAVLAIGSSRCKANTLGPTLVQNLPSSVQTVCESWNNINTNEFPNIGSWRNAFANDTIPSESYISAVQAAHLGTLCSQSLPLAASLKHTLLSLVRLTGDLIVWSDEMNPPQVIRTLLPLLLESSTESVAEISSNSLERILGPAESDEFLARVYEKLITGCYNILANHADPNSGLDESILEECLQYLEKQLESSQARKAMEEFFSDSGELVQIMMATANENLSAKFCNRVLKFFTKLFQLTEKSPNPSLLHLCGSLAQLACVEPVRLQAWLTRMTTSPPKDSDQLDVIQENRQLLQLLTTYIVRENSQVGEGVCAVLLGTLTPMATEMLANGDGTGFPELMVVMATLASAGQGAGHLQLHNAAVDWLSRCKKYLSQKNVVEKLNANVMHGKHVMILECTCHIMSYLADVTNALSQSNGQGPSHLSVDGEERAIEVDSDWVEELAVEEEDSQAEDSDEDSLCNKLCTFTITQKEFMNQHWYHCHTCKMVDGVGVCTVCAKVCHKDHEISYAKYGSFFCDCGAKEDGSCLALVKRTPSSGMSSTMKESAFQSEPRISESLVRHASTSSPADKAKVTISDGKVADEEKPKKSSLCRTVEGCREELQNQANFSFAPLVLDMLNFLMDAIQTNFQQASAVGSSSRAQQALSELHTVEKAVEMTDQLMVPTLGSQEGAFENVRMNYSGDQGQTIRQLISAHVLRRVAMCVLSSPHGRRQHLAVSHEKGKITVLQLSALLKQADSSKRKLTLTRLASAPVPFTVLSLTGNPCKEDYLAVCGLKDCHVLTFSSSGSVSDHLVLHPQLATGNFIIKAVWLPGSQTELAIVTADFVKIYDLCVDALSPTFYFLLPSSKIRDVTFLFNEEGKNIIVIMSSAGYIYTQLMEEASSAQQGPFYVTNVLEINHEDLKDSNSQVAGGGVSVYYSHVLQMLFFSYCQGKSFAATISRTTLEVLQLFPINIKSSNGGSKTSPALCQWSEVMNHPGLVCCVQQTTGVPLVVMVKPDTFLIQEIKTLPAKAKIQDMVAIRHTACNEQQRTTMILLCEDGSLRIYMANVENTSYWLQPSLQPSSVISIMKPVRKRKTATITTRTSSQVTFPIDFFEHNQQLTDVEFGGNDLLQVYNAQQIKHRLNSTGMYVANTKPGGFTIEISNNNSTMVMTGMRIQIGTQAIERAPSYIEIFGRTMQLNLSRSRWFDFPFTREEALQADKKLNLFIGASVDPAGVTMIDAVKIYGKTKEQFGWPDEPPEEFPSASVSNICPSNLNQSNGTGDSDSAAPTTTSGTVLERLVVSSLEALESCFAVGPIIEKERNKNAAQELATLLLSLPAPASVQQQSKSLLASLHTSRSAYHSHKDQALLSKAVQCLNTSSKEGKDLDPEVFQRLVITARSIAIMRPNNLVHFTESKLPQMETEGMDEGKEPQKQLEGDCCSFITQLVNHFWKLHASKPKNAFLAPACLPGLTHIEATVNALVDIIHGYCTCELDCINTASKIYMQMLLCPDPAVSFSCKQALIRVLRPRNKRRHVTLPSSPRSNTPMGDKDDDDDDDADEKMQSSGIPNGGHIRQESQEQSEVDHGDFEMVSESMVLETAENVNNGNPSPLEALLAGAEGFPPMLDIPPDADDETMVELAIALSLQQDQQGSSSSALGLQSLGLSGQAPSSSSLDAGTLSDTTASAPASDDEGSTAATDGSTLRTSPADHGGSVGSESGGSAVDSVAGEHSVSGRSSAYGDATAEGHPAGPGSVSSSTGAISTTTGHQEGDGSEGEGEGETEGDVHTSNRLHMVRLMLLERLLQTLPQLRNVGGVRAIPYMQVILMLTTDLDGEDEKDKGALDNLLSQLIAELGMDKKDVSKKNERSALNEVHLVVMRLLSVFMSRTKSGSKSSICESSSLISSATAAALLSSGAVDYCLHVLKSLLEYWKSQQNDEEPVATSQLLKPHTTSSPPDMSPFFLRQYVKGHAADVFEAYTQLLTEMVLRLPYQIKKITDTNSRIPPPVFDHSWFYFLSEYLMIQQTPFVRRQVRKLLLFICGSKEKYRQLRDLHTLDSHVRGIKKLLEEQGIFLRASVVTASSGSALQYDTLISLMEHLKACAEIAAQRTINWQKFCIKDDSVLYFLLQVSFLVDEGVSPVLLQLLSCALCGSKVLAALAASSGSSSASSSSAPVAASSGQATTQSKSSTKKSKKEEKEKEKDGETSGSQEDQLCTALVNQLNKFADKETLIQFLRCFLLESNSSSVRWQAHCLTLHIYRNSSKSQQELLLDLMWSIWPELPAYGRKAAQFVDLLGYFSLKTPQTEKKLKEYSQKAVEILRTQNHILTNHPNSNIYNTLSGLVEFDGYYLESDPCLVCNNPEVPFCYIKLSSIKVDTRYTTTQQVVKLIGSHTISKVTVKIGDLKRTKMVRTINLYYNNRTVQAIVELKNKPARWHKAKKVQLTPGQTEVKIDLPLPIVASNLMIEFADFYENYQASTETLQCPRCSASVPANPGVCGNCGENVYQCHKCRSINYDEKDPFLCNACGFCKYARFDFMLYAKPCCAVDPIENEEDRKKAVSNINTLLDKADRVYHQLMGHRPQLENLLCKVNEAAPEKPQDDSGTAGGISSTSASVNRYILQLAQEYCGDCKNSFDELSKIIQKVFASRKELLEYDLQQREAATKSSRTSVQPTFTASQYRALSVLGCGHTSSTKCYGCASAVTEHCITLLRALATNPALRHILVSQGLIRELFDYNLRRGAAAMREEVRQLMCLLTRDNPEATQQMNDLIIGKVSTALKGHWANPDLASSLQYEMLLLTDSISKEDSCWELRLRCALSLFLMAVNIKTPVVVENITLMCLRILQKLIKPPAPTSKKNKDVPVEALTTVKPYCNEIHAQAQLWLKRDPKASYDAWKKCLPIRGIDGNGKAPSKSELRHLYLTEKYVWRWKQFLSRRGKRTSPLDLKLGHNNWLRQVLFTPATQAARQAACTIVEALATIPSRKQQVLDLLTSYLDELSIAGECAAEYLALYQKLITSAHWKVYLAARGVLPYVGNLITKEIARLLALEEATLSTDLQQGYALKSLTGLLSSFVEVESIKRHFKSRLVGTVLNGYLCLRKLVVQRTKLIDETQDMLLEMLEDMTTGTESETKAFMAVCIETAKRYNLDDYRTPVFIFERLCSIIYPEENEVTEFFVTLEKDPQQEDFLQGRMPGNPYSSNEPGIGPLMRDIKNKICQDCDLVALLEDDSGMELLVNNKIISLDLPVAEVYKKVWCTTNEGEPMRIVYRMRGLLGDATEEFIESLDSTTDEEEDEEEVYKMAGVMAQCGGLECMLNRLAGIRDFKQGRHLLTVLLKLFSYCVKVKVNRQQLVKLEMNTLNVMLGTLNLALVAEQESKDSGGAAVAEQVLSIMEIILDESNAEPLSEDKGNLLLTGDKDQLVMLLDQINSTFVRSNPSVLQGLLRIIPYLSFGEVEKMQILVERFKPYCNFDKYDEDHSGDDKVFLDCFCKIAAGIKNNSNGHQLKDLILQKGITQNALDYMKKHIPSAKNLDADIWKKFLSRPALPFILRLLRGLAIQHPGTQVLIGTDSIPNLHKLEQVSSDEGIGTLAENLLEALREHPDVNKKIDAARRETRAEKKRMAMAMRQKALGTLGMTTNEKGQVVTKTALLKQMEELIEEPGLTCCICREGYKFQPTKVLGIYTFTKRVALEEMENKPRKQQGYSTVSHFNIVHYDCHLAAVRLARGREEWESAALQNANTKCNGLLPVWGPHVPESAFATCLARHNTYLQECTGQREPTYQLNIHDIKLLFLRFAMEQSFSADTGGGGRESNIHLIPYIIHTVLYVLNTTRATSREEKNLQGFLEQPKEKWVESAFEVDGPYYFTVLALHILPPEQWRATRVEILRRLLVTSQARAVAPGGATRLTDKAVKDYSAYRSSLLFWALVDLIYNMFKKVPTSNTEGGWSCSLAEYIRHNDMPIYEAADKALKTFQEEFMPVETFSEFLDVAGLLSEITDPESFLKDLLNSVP
UniProt Q9UHP3: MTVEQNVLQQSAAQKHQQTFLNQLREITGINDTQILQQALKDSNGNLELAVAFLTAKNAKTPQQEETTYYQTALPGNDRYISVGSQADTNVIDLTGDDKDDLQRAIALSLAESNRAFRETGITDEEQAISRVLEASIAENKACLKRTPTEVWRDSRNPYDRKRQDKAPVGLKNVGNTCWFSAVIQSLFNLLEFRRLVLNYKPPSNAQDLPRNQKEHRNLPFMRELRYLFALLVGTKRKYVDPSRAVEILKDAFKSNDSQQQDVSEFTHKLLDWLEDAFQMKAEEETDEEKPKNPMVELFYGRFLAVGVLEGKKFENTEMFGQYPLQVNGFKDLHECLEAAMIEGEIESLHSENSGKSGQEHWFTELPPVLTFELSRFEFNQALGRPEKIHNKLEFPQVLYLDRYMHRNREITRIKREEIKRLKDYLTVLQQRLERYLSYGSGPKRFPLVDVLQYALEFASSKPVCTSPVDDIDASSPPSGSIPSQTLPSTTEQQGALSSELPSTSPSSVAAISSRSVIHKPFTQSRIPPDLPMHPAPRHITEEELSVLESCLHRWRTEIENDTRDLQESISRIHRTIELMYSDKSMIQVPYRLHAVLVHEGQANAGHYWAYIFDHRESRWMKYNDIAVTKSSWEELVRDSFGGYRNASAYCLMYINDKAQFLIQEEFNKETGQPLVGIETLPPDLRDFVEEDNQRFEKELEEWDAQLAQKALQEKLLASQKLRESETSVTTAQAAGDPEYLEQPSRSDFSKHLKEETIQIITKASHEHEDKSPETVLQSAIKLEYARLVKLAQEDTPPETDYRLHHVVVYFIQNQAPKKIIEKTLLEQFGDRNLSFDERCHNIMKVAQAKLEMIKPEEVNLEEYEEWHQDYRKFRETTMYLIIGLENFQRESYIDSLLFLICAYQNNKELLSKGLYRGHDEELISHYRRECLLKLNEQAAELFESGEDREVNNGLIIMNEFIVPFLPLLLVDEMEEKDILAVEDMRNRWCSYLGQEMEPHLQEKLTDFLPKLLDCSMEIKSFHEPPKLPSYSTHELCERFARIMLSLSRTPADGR

T1: KLHL6 L65P fused to C-terminal BioID2 (human) (UniProt Q8WZ60)
T1 sequence: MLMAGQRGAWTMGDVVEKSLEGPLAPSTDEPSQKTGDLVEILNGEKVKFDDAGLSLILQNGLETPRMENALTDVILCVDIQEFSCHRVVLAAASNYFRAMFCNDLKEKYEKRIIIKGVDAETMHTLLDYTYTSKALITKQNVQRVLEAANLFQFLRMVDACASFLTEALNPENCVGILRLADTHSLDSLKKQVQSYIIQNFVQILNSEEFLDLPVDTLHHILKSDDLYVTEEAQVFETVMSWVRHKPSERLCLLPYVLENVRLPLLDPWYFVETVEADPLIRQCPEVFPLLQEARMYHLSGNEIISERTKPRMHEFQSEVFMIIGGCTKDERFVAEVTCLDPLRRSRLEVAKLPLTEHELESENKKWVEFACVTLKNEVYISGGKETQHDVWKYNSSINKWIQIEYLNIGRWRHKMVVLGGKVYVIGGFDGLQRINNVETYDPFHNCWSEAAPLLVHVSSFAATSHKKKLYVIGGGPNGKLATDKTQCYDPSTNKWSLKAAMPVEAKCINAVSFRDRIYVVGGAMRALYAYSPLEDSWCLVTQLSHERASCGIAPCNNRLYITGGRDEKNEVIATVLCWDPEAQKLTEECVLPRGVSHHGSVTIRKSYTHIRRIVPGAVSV

T2: KLHL6 wild type fused to C-terminal BioID2 (human) (UniProt Q8WZ60)
T2 sequence: T1 sequence with P65L

T3: KLHL6 wild type, C-terminal Strep-HA tag (KLHL6-strHA) (human) (UniProt Q8WZ60)
T3 sequence: T1 sequence with P65L

T4: KLHL6 E568K, C-terminal Strep-HA tag (human) (UniProt Q8WZ60)
T4 sequence: T1 sequence with P65L, E568K

T5: KLHL6 L65P, C-terminal Strep-HA tag (human) (UniProt Q8WZ60)
T5 sequence: T1 sequence

T6: KLHL6 L90F, C-terminal Strep-HA tag (human) (UniProt Q8WZ60)
T6 sequence: T1 sequence with P65L, L90F

B1: KLHL26 (protein, UniProt Q53HC5 1-615)
chain: MAESGGSSGGAGGGGAFGAGPGPERPNSTADKNGALKCTFSAPSHSTSLLQGLATLRAQGQLLDVVLTINREAFPAHKVVLAACSDYFRAMFTGGMREASQDVIELKGVSARGLRHIIDFAYSAEVTLDLDCVQDVLGAAVFLQMLPVVELCEEFLKAAMSVETCLNIGQMATTFSLASLRESVDAFTFRHFLQIAEEEDFLRLPLERLVFFLQSNRLQSCAEIDLFRAAVRWLQHDPARRPRASHVLCHIRFPLMQSSELVDSVQTLDIMVEDVLCRQYLLEAFNYQVLPFRQHEMQSPRTAVRSDVPSLVTFGGTPYTDSDRSVSSKVYQLPEPGARHFRELTEMEVGCSHTCVAVLDNFVYVAGGQHLQYRSGEGAVDACYRYDPHLNRWLRLQAMQESRIQFQLNVLCGMVYATGGRNRAGSLASVERYCPRRNEWGYACSLKRRTWGHAGAASGGRLYISGGYGISVEDKKALHCYDPVADQWEFKAPMSEPRVLHAMVGAGGRIYALGGRMDHVDRCFDVLAVEYYVPETDQWTSVSPMRAGQSEAGCCLLERKIYIVGGYNWRLNNVTGIVQVYNTDTDEWERDLHFPESFAGIACAPVLLPRAGTRR
B2: endogenous KLHL6 (protein, UniProt Q8WZ60 1-621)
chain: T1 sequence with P65L

Columns and labels:
[1] = target: T1, KLHL6 L65P fused to C-terminal BioID2 (human); experiment: proximity labelling; KLHL6 baits with C-terminal BioID2 stably expressed in SuDHL5, no added biotin; lysis with 0.1% SDS; biotinylated proteins purified on Strep-Tactin Sepharose; mass spectrometry; BioID2-tagged EmGFP controls
[2] = target: T2, KLHL6 wild type fused to C-terminal BioID2 (human); experiment: as above
[3] = target: T3, KLHL6 wild type, C-terminal Strep-HA tag (KLHL6-strHA) (human); experiment: affinity purification with mass spectrometry; C-terminally Strep-HA-tagged KLHL6 baits stably expressed in SuDHL5; lysis in 0.5% IGEPAL, 50 mmol/L HEPES pH 8.0, 150 mmol/L NaCl, 5 mmol/L EDTA; one-step purification on Strep-Tactin Sepharose; EmGFP controls; SAINT and DESeq2; also done 60 seconds after BCR cross-linking with anti-human IgM F(ab')2 or control goat IgG
[4] = target: T4, KLHL6 E568K, C-terminal Strep-HA tag (human); experiment: as above
[5] = target: T5, KLHL6 L65P, C-terminal Strep-HA tag (human); experiment: as above
[6] = target: T6, KLHL6 L90F, C-terminal Strep-HA tag (human); experiment: as above
[7] = target: T3, KLHL6 wild type, C-terminal Strep-HA tag (KLHL6-strHA) (human); experiment: as above; remark: listed apart in the source

Molecule | binding [1] | binding [2] | binding [3] | binding [4] | binding [5] | binding [6] | binding [7]
E3 ubiquitin ligase UBR4 (from UniProt Q5T4S7 1-5183) | binds weakly | binds | binds | – | – | – | –
deubiquitinating enzyme 25 (USP25) (from UniProt Q9UHP3 1-1055) | binds weakly | binds | – | – | – | – | –
B1 | – | – | – | binds | no binding | no binding | binds
B2 | – | – | – | – | binds | binds | –
